According to publication PMC11811133:
Results are given in words; binding and its absence hold for the method and conditions named. In cells and extracts the contact can be indirect. Here binding means that the protein was enriched with, or labelled near, the bait; the list need not be complete. Sequences can lack the tags named with a protein.

Amino acid sequences for entries named in this document (tags omitted).
UniProt Q9EPL8: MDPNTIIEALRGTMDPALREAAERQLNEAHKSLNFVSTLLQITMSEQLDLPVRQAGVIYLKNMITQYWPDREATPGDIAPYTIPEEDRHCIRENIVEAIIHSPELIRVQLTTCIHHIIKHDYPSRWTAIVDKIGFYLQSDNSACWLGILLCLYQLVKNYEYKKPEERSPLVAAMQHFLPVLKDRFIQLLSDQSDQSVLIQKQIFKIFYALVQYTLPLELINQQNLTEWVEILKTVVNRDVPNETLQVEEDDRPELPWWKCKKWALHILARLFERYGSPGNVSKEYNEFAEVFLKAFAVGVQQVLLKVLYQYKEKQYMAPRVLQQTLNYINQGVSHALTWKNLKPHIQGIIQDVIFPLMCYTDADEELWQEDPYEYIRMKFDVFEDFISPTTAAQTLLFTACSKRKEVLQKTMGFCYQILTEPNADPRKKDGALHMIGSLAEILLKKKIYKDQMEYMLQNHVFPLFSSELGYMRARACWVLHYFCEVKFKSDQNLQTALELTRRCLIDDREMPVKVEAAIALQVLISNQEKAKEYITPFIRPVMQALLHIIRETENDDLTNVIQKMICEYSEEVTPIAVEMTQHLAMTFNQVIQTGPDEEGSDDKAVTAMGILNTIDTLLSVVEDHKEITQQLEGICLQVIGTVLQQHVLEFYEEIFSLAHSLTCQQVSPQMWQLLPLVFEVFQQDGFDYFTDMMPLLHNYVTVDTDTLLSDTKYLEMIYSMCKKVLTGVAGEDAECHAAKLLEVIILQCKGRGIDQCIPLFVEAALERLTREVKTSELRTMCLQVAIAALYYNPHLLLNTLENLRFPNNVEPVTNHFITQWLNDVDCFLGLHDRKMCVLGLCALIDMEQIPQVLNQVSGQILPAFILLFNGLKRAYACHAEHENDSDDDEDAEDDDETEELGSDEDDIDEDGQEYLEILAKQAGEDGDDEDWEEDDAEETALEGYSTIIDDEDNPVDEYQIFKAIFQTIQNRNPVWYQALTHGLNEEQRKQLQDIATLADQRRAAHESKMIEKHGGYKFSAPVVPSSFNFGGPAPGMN
UniProt Q9CR16: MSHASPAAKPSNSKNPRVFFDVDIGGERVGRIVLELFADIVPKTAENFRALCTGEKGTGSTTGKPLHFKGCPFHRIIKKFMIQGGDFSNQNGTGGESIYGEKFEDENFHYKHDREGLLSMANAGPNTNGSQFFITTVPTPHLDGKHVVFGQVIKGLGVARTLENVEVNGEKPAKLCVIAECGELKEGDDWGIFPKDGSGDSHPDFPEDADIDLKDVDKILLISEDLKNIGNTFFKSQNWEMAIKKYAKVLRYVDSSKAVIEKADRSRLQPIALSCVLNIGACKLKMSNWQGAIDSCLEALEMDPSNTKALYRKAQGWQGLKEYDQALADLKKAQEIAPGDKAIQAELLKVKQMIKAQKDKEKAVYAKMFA
UniProt Q62167: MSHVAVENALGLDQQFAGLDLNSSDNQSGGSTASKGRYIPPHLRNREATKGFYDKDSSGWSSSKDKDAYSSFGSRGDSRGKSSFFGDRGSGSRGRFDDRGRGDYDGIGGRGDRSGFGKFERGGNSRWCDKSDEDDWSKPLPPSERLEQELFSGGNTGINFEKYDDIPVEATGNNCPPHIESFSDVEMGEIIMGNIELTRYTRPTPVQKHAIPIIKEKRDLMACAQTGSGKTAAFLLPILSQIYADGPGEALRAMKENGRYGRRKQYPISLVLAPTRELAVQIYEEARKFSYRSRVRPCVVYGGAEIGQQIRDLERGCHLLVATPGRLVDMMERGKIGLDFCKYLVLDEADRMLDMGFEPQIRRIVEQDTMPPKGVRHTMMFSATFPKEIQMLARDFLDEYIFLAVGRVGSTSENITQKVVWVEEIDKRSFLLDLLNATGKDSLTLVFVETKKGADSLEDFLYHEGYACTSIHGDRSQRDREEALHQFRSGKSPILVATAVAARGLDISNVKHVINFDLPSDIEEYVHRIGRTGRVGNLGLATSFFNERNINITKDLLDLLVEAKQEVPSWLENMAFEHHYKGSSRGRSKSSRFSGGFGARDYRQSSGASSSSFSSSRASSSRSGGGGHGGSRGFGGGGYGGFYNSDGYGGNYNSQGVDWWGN

B1: TRIM56 (tripartite motif protein 56), endogenous in N2a cells (protein, UniProt Q80VI1 1-734)
chain: MNSKVSSPTLLEALSSDFLACKICLEQLHTPKTLPCLHTYCQDCLAQLDIGGQVRCPECREIVPVPAEGVAAFKTNFFVNGLLDLVKARAPGDVHSGKPTCALCPLVGGKSSGGPATARCLDCADDLCQACADGHRCSRQTHKHRVVDLVGYRAGWYDEEARERQASQCPQHPGEALCFLCQPCSQLLCKDCRLGPHIDHPCLPLAEAVRSRKPGLEELLAGVDSNLVELEATRVAEKEALALLREQAASVGTQVEEAAERILKSLLAQKQEVLGQLRALVEAAEEATRERLTKIERQEQVAKAAAAFARRVLSLGLEAEILSLEGAITQRLRQLQDAPWTSGPTRCVLPQLELHPGLEDKNCHLLRLIFEEPKQSPKDSGKGGAGTQGGDEAQGQGDDRTKIGKQGGAQPLTPKEGKDQNPQEDDGVFIERGNRPNKKKKCKGRGKSVSREPSPILRPNLEGSGLLPRPVFSWSFPTRMPGDKRSPRITGLCPYGPQEILVADEQNRVLKRFSLNGDYKGTVQVPEGCSPCSVAALQNAVAFSANAKLYLVSPDGEIQWRRSLSLTQSSHAVAAMPCGDRVAVSVAGHVEVYKKDGSLATRFIPGGKASRGQRALVFLTTSPQGNFVGSDWQQNSVVFCDGLGQVIWEYKGPGLHGCQPGSVSVDKKGYIFLTLREVNKVVILDPKGSLLGDFLTAYHGLEKPRVTTMVDGKYLVVSLSNGTIHVFRVRFPDS
B2: SHMT2, endogenous in N2a cells (protein, UniProt Q9CZN7 30-504)
chain: KVAQTQAGEAAGGWTGQESLSDSDPEMWELLQREKDRQCRGLELIASENFCSRAALEALGSCLNNKYSEGYPGKRYYGGAEVVDEIELLCQRRALEAFDLDPAQWGVNVQPYSGSPANLAAYTALLQPHDRIMGLDLPDGGHLTHGYMSDVKRISATSIFFESMPYKLNPQTGLIDYDQLALTARLFRPRLIIAGTSAYARLIDYARMREVCDEVRAHLLADMAHISGLVAAKVIPSPFKYADVVTTTTHKTLRGARSGLIFYRKGVRTVDPKTGKEIPYTFEDRINFAVFPSLQGGPHNHAIAAVAVALKQACTPMFREYSLQVLRNAQAMADALLKRGYSLVSGGTDTHLVLVDLRPKGLDGARAERVLELVSITANKNTCPGDRSAITPGGLRLGAPALTSRQFREDDFRRVVDFIDEGVNIGLEVKRKTAKLQDFKSFLLKDPETSQRLANLRQQVEQFARGFPMPGFDER
B3: ZC3HAV1, endogenous in N2a cells (protein, UniProt Q3UPF5 1-996)
chain: MTDPEVFCFITKILCAHGGRMTLEELLGEISLPEAQLYELLKAAGPDRFVLLETGDQAGITRSVVATTRARVCRRKYCQRPCDSLHLCKLNLLGRCHYAQSQRNLCKYSHDVLSEQNFQVLKNHELSGLNQEELAVLLVQSDPFFMPEICKSYKGEGRKQICGQPQPCERLHICEHFTRGNCSYLNCLRSHNLMDRKVLAIMREHGLSSDVVQNIQDICNNKHTRRNPPSMRAPHPHRRGGAHRDRSKSRDRFHHNSLEVLSTVSPLGSGPPSPDVTGCKDPLEDVSADVTQKFKYLGTQDRAQLSSVSSKAAGVRGPSQMRASQEFLEDGDPDGLFSRNRSDSSTSRTSAAGFPLVAAQRNEAGAMKMGMPSGHHVEVKGKNEDIDRVPFLNSYIDGVTMEEATVSGILGKRATDNGLEEMILSSNHQKSVAKTQDPQTAGRITDSGQDTAFLHSKYEENPAWPGTSTHNGPNGFSQIMDETPNVSKSSPTGFGIKSAVTGGKEAVYSGVQSLRSHVLAMPGETTTPVQGSNRLPPSPLSSSTSHRVAASGSPGKSSTHASVSPASEPSRMMMMMSDPAEYSLCYIVNPVSPRMDDHGLKEICLDHLYRGCQQVNCNKNHFHLPYRWQLFILPTWMDFQDMEYIERAYCDPQIEIIVIEKHRINFKKMTCDSYPIRRLSTPSFVEKTLNSVFTTKWLWYWRNELNEYTQYGHESPSHTSSEINSAYLESFFHSCPRGVLQFHAGSQNYELSFQGMIQTNIASKTQRHVVRRPVFVSSKDVEQKRRGPDHQPVMPQADALTLFSSPQRNASTVSSNEYEFIELNNQDEEYAKISEQFKASMKQFKIVTIKRIWNQKLWDTFERKKQKMKNKTEMFLFHAVGRIHMDYICKNNFEWILHGNREIRYGKGNYFTKEAMYSHKSCSYDSRGTVMFVARVLVGSVIEGNMTLSSPPALYDSCVDTRLNPSVFVIFRKEQIYPEYVIEYMELEKEKGCIIS

Target: T1, HA-HDAC6 (full-length wild-type mouse histone deacetylase 6), expressed in N2a cells (mouse) (UniProt Q9Z2V5)
T1 sequence: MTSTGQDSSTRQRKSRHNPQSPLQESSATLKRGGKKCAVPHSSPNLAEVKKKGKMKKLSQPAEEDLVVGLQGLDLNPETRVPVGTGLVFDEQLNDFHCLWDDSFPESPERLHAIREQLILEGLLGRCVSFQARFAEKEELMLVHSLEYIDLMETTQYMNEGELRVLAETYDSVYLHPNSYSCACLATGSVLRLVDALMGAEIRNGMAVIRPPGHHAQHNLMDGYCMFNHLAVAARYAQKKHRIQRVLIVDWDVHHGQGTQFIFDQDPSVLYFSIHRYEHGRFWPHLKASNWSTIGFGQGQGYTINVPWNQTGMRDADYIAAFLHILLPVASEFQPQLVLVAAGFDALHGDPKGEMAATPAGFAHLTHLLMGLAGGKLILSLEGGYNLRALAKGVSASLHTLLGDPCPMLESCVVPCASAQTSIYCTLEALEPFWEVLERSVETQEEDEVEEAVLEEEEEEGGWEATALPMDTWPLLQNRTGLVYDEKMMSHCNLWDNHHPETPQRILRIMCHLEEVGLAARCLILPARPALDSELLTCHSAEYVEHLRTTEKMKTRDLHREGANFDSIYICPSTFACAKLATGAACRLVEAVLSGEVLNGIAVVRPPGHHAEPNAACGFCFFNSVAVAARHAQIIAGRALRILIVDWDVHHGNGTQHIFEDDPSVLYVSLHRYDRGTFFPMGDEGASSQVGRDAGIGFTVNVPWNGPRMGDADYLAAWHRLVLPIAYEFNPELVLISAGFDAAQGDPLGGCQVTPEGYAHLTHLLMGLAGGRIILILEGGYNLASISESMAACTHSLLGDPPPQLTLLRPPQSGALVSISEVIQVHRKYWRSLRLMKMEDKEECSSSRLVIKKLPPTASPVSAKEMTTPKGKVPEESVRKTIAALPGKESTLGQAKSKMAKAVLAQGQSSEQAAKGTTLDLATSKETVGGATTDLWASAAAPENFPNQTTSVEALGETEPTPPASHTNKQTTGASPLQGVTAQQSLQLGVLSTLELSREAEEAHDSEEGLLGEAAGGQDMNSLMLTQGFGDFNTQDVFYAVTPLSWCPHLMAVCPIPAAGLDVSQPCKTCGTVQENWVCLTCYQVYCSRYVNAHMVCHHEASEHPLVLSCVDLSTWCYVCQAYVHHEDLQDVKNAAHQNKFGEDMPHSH
Experiment: affinity purification with mass spectrometry; N2a cells transfected with HA-HDAC6 or HA-vector (15 ug, 48 h), NP-40 lysis buffer, HA-antibody immunoprecipitation, elution with 0.3% formic acid, DIA LC-MS/MS, SAINTexpress scoring; also cells in early HSV-1 infection (time-dependent interactome)

Row | Molecule | binding
1 | IPO7, endogenous in N2a cells (from UniProt Q9EPL8 1-1038) | binds
2 | PPID, endogenous in N2a cells (from UniProt Q9CR16 1-370) | binds
3 | DDX3X, endogenous in N2a cells (from UniProt Q62167 1-662) | binds
4 | B1 | binds
5 | B2 | binds
6 | B3 | binds
